Assay: Photo-transformation (UV photo-crosslinking) of cross-linkers without initiator, checked by loss of solubility in chloroform
Details: 400 W metal halide lamp, 20 cm

| SMILES | Photo-transformation, exposure time 5 min | Photo-transformation, exposure time 10 min | Photo-transformation, exposure time 15 min (15 min) | Photo-transformation, exposure time 30 min (30 min) |
| --- | --- | --- | --- | --- |
| C=CC(=O)NC(CC(C)C)C(=O)OCCCCOC(=O)C(CC(C)C)NC(=O)C=C (centres unmarked) [Leu-4-AA] | + |  |  |  |
| CC(C)CC(NC(=O)C=Cc1ccccc1)C(=O)OCCCCOC(=O)C(CC(C)C)NC(=O)C=Cc1ccccc1 (centres unmarked) [Leu-4-CA] | + |  |  |  |
| C=C(C)C(=O)NC(CC(C)C)C(=O)OCCCCOC(=O)C(CC(C)C)NC(=O)C(=C)C (centres unmarked) [Leu-4-MA] | + |  |  |  |
| C=CC(=O)NC(CC(C)C)C(=O)OCCCCCCOC(=O)C(CC(C)C)NC(=O)C=C (centres unmarked) [Leu-6-AA] | + |  |  |  |
| CC(C)CC(NC(=O)C=Cc1ccccc1)C(=O)OCCCCCCOC(=O)C(CC(C)C)NC(=O)C=Cc1ccccc1 (centres unmarked) [Leu-6-CA] | − | − | − | + |
| C=C(C)C(=O)NC(CC(C)C)C(=O)OCCCCCCOC(=O)C(CC(C)C)NC(=O)C(=C)C (centres unmarked) [Leu-6-MA] | + |  |  |  |
| C=CC(=O)NC(Cc1ccccc1)C(=O)OCCCCOC(=O)C(Cc1ccccc1)NC(=O)C=C (centres unmarked) [Phe-4-AA] | + |  |  |  |
| O=C(C=Cc1ccccc1)NC(Cc1ccccc1)C(=O)OCCCCOC(=O)C(Cc1ccccc1)NC(=O)C=Cc1ccccc1 (centres unmarked) [Phe-4-CA] | − | + |  |  |
| C=C(C)C(=O)NC(Cc1ccccc1)C(=O)OCCCCOC(=O)C(Cc1ccccc1)NC(=O)C(=C)C (centres unmarked) [Phe-4-MA] | + |  |  |  |
| C=CC(=O)NC(Cc1ccccc1)C(=O)OCCCCCCOC(=O)C(Cc1ccccc1)NC(=O)C=C (centres unmarked) [Phe-6-AA] | + |  |  |  |
| O=C(C=Cc1ccccc1)NC(Cc1ccccc1)C(=O)OCCCCCCOC(=O)C(Cc1ccccc1)NC(=O)C=Cc1ccccc1 (centres unmarked) [Phe-6-CA] | − | + |  |  |
| C=C(C)C(=O)N[C@@H](Cc1ccccc1)C(=O)OCCCCCCOC(=O)[C@H](Cc1ccccc1)NC(=O)C(=C)C [Phe-6-MA, dimethacrylate of bis(L-Phe)-1,6-hexanediol diester] | + |  |  |  |

From patent publication US7649022B2, “Bioabsorbable elastomeric polymer networks, cross-linkers and methods of use” (priority 2007, dated 2010)
